Data on one compound can be found in patent publication US11786495B2 (priority 2021, dated 2023).

The format of series [1] is in vitro ADME, Quail. The settings on record: no eggs.
A short description of series [2]: pH of aqueous solutions of the dissolved yolks after TEC incubation. It counts as physicochemical, Quail.

Structures are written as SMILES. Counter-ions that a name gives are not always drawn. Like-named read-outs stand apart in the source and are kept apart here.

As to `CCOC(=O)CC(O)(CC(=O)OCC)C(=O)OCC` [TEC, Triethyl citrate], the “Taste of PBS without eggs” value is on record as “Not bitter” in series [1] (0.01M TEC in PBS), “Moderate bitter” in series [1] (0.1M TEC in PBS) and “Very bitter” in series [1] (1.0M TEC in PBS). Besides, the “pH of aqueous solution of dissolved yolk” value in series [2] (eggs incubated in 0.01M TEC) was found to be 4.34; in series [2] (eggs incubated in 01.M TEC) it was 4.37; in series [2] (eggs incubated in 1.0M TEC), 4.35.
